# Data taken from the supplement of paper PMC12067093, “Discovery and optimisation of a covalent ligand for TRIM25 and its application to targeted protein ubiquitination” (Chemical Science, 2025).
# Protein sequences, listed by entry. Tags and fused reporters are not part of them. Lines headed by an entry give the natural chain unless they say otherwise; changes in a name come on top.
# UniProt O75446: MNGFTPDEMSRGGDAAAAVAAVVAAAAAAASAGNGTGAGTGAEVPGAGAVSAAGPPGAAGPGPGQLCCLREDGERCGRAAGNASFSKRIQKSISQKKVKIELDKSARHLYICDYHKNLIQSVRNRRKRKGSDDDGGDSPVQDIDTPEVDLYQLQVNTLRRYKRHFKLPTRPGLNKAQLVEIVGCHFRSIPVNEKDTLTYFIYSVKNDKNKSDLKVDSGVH
# UniProt Q9Y3A5: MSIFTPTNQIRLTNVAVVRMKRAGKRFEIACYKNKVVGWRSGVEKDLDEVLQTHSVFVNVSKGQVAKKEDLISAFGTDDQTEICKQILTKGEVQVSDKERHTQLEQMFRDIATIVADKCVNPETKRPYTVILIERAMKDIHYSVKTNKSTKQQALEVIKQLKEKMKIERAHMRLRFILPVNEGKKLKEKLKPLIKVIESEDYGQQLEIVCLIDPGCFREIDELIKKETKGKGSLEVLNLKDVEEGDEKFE
# UniProt Q15020: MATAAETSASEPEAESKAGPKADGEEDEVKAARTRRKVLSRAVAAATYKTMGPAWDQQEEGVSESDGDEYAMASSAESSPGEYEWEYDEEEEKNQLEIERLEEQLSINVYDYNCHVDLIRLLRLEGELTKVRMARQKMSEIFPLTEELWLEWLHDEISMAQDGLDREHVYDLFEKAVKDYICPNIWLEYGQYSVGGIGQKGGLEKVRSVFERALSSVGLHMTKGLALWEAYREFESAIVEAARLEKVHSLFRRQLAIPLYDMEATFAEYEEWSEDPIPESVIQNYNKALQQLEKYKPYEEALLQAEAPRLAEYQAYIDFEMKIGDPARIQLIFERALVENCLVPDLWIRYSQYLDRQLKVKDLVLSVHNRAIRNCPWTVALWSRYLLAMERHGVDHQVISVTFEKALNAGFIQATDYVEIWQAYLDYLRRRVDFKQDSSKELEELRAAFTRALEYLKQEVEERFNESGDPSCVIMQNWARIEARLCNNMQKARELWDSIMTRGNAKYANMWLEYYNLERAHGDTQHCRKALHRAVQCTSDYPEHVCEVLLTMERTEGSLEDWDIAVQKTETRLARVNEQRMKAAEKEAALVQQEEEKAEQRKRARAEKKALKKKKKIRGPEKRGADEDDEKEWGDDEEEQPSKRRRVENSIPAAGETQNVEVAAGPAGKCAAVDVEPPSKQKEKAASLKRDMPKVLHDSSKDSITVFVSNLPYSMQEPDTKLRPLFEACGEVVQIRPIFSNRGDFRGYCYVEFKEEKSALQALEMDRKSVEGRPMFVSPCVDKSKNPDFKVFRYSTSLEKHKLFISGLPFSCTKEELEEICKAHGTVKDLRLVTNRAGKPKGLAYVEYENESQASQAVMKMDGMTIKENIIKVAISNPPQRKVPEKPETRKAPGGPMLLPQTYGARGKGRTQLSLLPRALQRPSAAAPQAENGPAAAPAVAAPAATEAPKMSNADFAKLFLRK
# UniProt Q9Y6B6: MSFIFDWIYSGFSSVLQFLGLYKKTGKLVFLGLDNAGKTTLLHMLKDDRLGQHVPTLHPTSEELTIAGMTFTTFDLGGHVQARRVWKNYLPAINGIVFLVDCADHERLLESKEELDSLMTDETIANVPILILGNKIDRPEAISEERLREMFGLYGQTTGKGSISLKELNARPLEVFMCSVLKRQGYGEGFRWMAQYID
# UniProt Q96IW7: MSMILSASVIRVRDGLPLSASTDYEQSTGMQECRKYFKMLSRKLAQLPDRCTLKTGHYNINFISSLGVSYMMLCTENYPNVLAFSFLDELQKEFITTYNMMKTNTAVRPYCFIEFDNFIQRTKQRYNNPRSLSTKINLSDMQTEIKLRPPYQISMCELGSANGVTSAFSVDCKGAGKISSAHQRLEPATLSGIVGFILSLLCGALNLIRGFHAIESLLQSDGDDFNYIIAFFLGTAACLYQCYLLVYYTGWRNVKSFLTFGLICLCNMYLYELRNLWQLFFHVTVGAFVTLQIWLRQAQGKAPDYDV
# UniProt P31040: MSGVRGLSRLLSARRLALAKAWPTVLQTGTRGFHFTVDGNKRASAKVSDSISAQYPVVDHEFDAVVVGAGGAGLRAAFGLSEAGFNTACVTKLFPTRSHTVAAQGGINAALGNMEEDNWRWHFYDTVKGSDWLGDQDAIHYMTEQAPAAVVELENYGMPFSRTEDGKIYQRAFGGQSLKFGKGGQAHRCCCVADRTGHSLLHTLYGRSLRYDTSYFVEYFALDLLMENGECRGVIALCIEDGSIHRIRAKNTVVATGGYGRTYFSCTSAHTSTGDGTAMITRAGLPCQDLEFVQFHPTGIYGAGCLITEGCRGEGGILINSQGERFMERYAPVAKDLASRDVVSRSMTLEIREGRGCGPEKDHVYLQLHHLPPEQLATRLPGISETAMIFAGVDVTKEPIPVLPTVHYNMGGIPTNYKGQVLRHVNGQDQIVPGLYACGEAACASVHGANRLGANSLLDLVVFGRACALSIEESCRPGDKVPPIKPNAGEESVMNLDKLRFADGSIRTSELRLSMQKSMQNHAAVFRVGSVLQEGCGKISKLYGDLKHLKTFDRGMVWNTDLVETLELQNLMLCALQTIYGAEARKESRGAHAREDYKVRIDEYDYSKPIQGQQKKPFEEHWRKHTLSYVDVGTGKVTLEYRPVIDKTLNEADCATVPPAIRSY
# UniProt O00422: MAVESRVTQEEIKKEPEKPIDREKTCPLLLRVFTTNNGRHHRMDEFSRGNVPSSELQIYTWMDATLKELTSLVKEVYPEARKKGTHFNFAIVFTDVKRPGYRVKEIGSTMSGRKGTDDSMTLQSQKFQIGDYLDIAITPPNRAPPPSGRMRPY
# UniProt Q8WU76: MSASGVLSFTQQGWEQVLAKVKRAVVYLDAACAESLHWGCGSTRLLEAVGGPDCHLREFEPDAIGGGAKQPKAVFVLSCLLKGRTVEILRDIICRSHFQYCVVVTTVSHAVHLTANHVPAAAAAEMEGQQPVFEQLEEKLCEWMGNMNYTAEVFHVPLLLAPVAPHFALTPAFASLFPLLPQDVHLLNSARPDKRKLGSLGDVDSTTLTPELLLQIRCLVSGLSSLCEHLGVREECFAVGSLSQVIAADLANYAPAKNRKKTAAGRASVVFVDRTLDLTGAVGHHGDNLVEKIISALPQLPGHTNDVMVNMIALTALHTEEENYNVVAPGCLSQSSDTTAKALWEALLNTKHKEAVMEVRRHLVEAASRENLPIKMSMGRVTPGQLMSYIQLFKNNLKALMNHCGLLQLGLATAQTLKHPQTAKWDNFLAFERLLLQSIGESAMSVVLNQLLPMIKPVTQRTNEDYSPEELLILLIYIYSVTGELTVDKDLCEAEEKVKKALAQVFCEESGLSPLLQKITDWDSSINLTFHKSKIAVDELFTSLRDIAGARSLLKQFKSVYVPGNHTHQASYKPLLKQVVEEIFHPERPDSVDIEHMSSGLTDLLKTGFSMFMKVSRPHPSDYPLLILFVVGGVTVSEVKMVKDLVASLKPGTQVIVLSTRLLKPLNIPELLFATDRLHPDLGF
# UniProt O75845: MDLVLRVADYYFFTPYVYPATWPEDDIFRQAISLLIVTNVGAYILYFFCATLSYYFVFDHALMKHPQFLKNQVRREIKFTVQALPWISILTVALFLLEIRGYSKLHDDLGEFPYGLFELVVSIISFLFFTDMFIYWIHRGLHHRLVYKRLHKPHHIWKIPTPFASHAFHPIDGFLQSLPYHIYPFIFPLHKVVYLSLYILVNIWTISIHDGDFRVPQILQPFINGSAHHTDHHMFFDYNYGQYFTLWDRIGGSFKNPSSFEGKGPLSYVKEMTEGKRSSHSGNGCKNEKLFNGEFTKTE
# UniProt Q9Y6Y8: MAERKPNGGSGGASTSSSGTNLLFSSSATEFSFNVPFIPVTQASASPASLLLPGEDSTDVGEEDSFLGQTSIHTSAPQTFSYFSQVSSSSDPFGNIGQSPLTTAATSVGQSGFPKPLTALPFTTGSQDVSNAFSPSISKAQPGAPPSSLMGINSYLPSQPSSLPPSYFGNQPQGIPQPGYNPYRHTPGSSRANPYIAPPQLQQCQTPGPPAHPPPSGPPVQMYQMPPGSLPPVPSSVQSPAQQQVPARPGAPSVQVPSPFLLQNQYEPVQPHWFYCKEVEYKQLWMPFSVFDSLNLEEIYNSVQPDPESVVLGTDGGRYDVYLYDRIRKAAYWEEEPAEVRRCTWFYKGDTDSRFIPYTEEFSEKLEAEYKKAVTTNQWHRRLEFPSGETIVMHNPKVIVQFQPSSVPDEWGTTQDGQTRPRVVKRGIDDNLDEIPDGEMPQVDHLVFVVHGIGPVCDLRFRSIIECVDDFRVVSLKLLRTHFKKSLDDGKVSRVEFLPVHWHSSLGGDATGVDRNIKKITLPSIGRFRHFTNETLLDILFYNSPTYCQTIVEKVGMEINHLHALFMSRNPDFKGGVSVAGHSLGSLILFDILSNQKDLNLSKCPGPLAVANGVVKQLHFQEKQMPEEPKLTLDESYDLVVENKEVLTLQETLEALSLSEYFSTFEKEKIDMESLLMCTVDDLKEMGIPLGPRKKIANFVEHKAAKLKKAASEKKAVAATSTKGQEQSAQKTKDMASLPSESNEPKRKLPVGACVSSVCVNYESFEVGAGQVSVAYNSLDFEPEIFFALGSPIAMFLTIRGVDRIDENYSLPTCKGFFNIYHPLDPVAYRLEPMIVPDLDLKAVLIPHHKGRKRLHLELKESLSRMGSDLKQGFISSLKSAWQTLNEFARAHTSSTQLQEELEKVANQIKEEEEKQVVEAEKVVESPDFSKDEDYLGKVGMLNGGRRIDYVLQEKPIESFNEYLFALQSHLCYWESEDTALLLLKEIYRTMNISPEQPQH
# UniProt Q9UQR0: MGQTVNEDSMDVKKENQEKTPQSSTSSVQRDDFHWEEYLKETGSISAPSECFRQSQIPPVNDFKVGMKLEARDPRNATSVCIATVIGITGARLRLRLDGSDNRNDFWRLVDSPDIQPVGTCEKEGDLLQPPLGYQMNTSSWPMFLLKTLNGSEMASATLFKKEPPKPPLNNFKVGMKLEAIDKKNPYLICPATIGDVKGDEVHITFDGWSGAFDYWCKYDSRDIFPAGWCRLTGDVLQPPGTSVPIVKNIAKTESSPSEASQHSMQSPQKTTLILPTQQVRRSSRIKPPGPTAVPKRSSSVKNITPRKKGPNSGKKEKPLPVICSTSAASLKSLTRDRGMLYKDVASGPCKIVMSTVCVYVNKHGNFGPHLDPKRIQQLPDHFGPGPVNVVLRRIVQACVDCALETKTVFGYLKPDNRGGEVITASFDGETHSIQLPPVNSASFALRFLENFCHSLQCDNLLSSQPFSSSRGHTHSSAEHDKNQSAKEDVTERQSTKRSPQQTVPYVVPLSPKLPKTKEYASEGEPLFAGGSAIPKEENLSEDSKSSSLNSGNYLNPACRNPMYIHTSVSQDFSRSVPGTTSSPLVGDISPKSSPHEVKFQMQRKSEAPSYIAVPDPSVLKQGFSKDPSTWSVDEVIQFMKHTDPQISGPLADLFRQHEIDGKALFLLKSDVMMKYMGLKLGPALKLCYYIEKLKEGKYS
# UniProt Q96EE3: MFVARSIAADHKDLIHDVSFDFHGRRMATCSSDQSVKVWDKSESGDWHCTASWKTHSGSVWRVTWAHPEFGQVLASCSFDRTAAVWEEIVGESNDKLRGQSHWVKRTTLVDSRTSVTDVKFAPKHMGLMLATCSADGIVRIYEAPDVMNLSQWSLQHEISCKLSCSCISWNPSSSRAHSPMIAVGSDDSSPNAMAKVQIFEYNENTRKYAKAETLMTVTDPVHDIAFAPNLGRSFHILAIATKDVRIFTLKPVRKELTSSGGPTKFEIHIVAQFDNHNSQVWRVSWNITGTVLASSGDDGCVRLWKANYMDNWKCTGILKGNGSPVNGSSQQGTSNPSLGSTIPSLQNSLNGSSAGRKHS
# UniProt Q9HCN8: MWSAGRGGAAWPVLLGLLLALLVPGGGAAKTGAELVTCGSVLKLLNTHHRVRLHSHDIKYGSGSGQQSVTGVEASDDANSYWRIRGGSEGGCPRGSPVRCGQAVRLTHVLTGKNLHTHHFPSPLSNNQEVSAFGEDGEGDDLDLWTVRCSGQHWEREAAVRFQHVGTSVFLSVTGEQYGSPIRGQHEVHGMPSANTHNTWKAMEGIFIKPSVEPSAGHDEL
# UniProt Q9NVA2: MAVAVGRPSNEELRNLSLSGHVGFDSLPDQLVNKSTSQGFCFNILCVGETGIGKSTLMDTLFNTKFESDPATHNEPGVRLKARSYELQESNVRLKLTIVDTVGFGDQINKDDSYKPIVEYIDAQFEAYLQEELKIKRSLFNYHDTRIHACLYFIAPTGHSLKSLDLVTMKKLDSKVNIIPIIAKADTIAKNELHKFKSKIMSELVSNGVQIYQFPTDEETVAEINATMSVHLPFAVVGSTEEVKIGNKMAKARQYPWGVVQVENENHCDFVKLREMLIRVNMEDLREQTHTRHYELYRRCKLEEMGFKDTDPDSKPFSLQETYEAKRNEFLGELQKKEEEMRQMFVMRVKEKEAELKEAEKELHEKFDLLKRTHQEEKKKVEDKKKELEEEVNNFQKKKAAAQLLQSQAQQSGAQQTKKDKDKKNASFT
# Some of the results follow.
# Compound: Cc1cc(ccc1-c1ccccc1)C(=O)N1CCCN(CC1)C(=O)CCl [compound 10]
# Experiment: probe-labelled cysteine peptide fold change vs DMSO (competition) (log2 fold change); higher = less target engagement (more negative = stronger competition)
# Conditions: THP-1, incubation time: 4 h
# 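Further: competitive profiling in live THP-1 cells: cysteine peptides tagged with an iodoacetamide desthiobiotin (IA-DTB) probe, intensity after compound treatment relative to DMSO-treated cells.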
Target,probe-labelled cysteine peptide fold change (10 µM),probe-labelled cysteine peptide fold change (50 µM)
SCLT1_Q96NL6_506_LQNVLESERENCGLVSEQR (UniProt Q96NL6),-0.0949,-0.21
SEPSECS_Q9HD40_262_CMHLIQQGAR (UniProt Q9HD40),-0.072,-0.0413
SCAPER_Q9BY12_71_QSTAVDCK (UniProt Q9BY12),-0.329,-0.143
SBF1_O95248_839_VCTESGVTSDHLK (UniProt O95248),0.153,0.155
SATB1_Q01826_91_KGTMLPVFCVVEHYENAIEYDCKEEHAEFVLVR (UniProt Q01826),0.0202,-0.0214
SEC24C_P53992_452_FQCCFCSCINDVPPQYFQHLDHTGK (UniProt P53992),0.102,-0.096
SDSL_Q96GA7_296_LQAEGCLPPSLTSVVVIVCGGNNINSR (UniProt Q96GA7),-0.27,-0.105
SCRIB_Q14160_864_HVACLAR (UniProt Q14160),-0.128,-0.363
SAMSN1_Q9NSI8_165_DSFRLDDDGPYSGPFCGR (UniProt Q9NSI8),0.0998,-0.03
SAP30_O75446_112_HLYICDYHK (UniProt O75446),-0.000117,-0.553
SEC13_P55735_77_GHEGPVWQVAWAHPMYGNILASCSYDRK (UniProt P55735),0.0085,0.149
SBDS_Q9Y3A5_210+216_VIESEDYGQQLEIVCLIDPGCFR (UniProt Q9Y3A5),0.176,-0.074
SBDS_Q9Y3A5_119_CVNPETK (UniProt Q9Y3A5),0.0999,0.155
SEC23B_Q15437_180_MVQVHELSCEGISK (UniProt Q15437),0.0112,0.141
SCYL3_Q8IZE3_184_SIQSIRDPASIPPEEMSPEFTTLPECHGHAR (UniProt Q8IZE3),-0.1,-0.102
SCYL1_Q96KG9_143_ALSFLVNDCSLIHNNVCMAAVFVDR (UniProt Q96KG9),0.00161,0.208
SART3_Q15020_670_CAAVDVEPPSK (UniProt Q15020),-0.0578,-0.132
SAR1B_Q9Y6B6_178_PLEVFMCSVLK (UniProt Q9Y6B6),-0.0177,0.201
SEC13_P55735_153_KINNAHTIGCNAVSWAPAVVPGSLIDHPSGQK (UniProt P55735),0.25,0.151
SART3_Q15020_537_AVQCTSDYPEHVCEVLLTMER (UniProt Q15020),-0.0953,0.0951
SATB1_Q01826_91_GTMLPVFCVVEHYENAIEYDCKEEHAEFVLVRK (UniProt Q01826),-0.0561,-0.423

Target,probe-labelled cysteine peptide fold change (10 µM),probe-labelled cysteine peptide fold change (50 µM)
SEPHS2_Q99611_377_FGLLQGTSAETSGGLLICLPR (UniProt Q99611),-0.237,0.169
SCLY_Q96I15_388_VLMASVGAACHSDHGDQPSPVLLSYGVPFDVAR (UniProt Q96I15),-0.181,-0.401
SEC23B_Q15437_85_LWACNFCFQR (UniProt Q15437),-0.0086,-0.244
SAP30L_Q9HAJ7_74_HLYICDFHK (UniProt Q9HAJ7),0.0243,-0.578
SEC22A_Q96IW7_111_TNTAVRPYCFIEFDNFIQR (UniProt Q96IW7),-0.0625,-0.0958
SCAF8_Q9UPN6_475_TLSVCSTTLWVGQVDKK (UniProt Q9UPN6),0.0477,-0.102
SDHA_P31040_238_GVIALCIEDGSIHR (UniProt P31040),0.187,0.0703
SCAF4_O95104_420_PHQQEMEVEQPCIQEVK (UniProt O95104),-0.255,-0.103
SAP30BP_Q9UHR5_127_CSNHLQDK (UniProt Q9UHR5),-0.0884,-0.31
SAR1A_Q9NR31_178_ELNARPMEVFMCSVLKR (UniProt Q9NR31),-0.257,-0.823
SART3_Q15020_821_EELEEICK (UniProt Q15020),0.175,0.166
SEC24C_P53992_1083_SLSGGASYVDFLCHMHK (UniProt P53992),-0.0911,-0.558
SCAI_Q8N9R8_415_EMHCLHPGDLYPFTR (UniProt Q8N9R8),0.0781,-0.407
SDHA_P31040_89_AAFGLSEAGFNTACVTK (UniProt P31040),0.0671,0.223
SEC63_Q9UGP8_295_NEPPLTCPYSLK (UniProt Q9UGP8),-0.343,-1.34
SEC23B_Q15437_66_ERPDLPPVQYEPVLCSRPTCK (UniProt Q15437),0.0815,0.0328
SAP18_O00422_26_TCPLLLR (UniProt O00422),-0.186,0.00273
SCFD2_Q8WU76_218_CLVSGLSSLCEHLGVR (UniProt Q8WU76),0.209,0.26
SC5D_O75845_285_SSHSGNGCK (UniProt O75845),-0.173,-0.559
SEC23B_Q15437_352_TAANGHCIDIYACALDQTGLLEMK (UniProt Q15437),0.181,-0.0342
SEC24D_O94855_1022_GLYGGSSYVDFLCCVHK (UniProt O94855),0.0448,-0.751

# In a second layout: entries from further up
Target | probe-labelled cysteine peptide fold change (10 µM) | probe-labelled cysteine peptide fold change (50 µM)
SCLT1_Q96NL6_506_LQNVLESERENCGLVSEQR (UniProt Q96NL6) | -0.0949 | -0.21
SEC24C_P53992_452_FQCCFCSCINDVPPQYFQHLDHTGK (UniProt P53992) | 0.102 | -0.096
SCRIB_Q14160_864_HVACLAR (UniProt Q14160) | -0.128 | -0.363
SAMSN1_Q9NSI8_165_DSFRLDDDGPYSGPFCGR (UniProt Q9NSI8) | 0.0998 | -0.03
SAP30_O75446_112_HLYICDYHK (UniProt O75446) | -0.000117 | -0.553
SEC13_P55735_77_GHEGPVWQVAWAHPMYGNILASCSYDRK (UniProt P55735) | 0.0085 | 0.149
SBDS_Q9Y3A5_210+216_VIESEDYGQQLEIVCLIDPGCFR (UniProt Q9Y3A5) | 0.176 | -0.074
SBDS_Q9Y3A5_119_CVNPETK (UniProt Q9Y3A5) | 0.0999 | 0.155
SEC23B_Q15437_180_MVQVHELSCEGISK (UniProt Q15437) | 0.0112 | 0.141
SCYL1_Q96KG9_143_ALSFLVNDCSLIHNNVCMAAVFVDR (UniProt Q96KG9) | 0.00161 | 0.208
SART3_Q15020_670_CAAVDVEPPSK (UniProt Q15020) | -0.0578 | -0.132
SART3_Q15020_537_AVQCTSDYPEHVCEVLLTMER (UniProt Q15020) | -0.0953 | 0.0951
SEPHS2_Q99611_377_FGLLQGTSAETSGGLLICLPR (UniProt Q99611) | -0.237 | 0.169
SCLY_Q96I15_388_VLMASVGAACHSDHGDQPSPVLLSYGVPFDVAR (UniProt Q96I15) | -0.181 | -0.401
SEC22A_Q96IW7_111_TNTAVRPYCFIEFDNFIQR (UniProt Q96IW7) | -0.0625 | -0.0958
SCAF8_Q9UPN6_475_TLSVCSTTLWVGQVDKK (UniProt Q9UPN6) | 0.0477 | -0.102
SDHA_P31040_238_GVIALCIEDGSIHR (UniProt P31040) | 0.187 | 0.0703
SCAF4_O95104_420_PHQQEMEVEQPCIQEVK (UniProt O95104) | -0.255 | -0.103
SAP30BP_Q9UHR5_127_CSNHLQDK (UniProt Q9UHR5) | -0.0884 | -0.31
SART3_Q15020_821_EELEEICK (UniProt Q15020) | 0.175 | 0.166
SCAI_Q8N9R8_415_EMHCLHPGDLYPFTR (UniProt Q8N9R8) | 0.0781 | -0.407
SEC23B_Q15437_66_ERPDLPPVQYEPVLCSRPTCK (UniProt Q15437) | 0.0815 | 0.0328
SAP18_O00422_26_TCPLLLR (UniProt O00422) | -0.186 | 0.00273
SC5D_O75845_285_SSHSGNGCK (UniProt O75845) | -0.173 | -0.559
SEC24D_O94855_1022_GLYGGSSYVDFLCCVHK (UniProt O94855) | 0.0448 | -0.751

# More entries follow.

Target,probe-labelled cysteine peptide fold change (10 µM),probe-labelled cysteine peptide fold change (50 µM)
SCYL1_Q96KG9_88_CLHVVTEAVTPLGIYLK (UniProt Q96KG9),0.0987,-0.0219
SCAF8_Q9UPN6_1170_DDRDFDFCR (UniProt Q9UPN6),-0.189,-0.581
SCFD2_Q8WU76_54_LLEAVGGPDCHLR (UniProt Q8WU76),0.0371,0.181
SCRN1_Q12765_54_VECTYISIDQVPR (UniProt Q12765),0.0546,0.121
SDF2_Q99470_80_SATVCER (UniProt Q99470),-0.188,0.221
SCP2_P22307_495_ADCTITMADSDFLALMTGK (UniProt P22307),0.201,-0.0348
SEC23IP_Q9Y6Y8_467_SIIECVDDFR (UniProt Q9Y6Y8),0.143,0.282
SCFD1_Q8WVM8_623_HILYGCSELFNATQFIK (UniProt Q8WVM8),0.0551,0.0848
SAR1B_Q9Y6B6_178_ELNARPLEVFMCSVLKR (UniProt Q9Y6B6),-0.195,-0.622
SCFD2_Q8WU76_79_AVFVLSCLLK (UniProt Q8WU76),0.142,0.51
SDR39U1_Q9NRG7_78_ITWDELAASGLPSCDAAVNLAGENILNPLRR (UniProt Q9NRG7),-0.0189,0.479
SEPT2_Q15019_149_VHCCFYFISPFGHGLKPLDVAFMK (UniProt Q15019),-0.126,0.222
SCMH1_Q96GD3_116_LVDSAEIQPIGNCEK (UniProt Q96GD3),-0.154,0.0953
SDCCAG8_Q86SQ7_361_ALIQCDQLR (UniProt Q86SQ7),0.155,0.038
SCML2_Q9UQR0_121_LVDSPDIQPVGTCEK (UniProt Q9UQR0),-0.315,-0.0817
SEC22A_Q96IW7_33_VRDGLPLSASTDYEQSTGMQECR (UniProt Q96IW7),-0.0846,-0.304
SEH1L_Q96EE3_49_SESGDWHCTASWK (UniProt Q96EE3),0.204,0.0563
SDHA_P31040_654_TLNEADCATVPPAIR (UniProt P31040),-0.34,0.157
SEPT2_Q15019_111_LTVVDTPGYGDAINCR (UniProt Q15019),0.131,0.0356
SEC23A_Q15436_423_ISGAIGPCVSLNSK (UniProt Q15436),0.0193,0.0103
SEC23IP_Q9Y6Y8_604_CPGPLAVANGVVK (UniProt Q9Y6Y8),-0.165,-0.289

Target,probe-labelled cysteine peptide fold change (10 µM),probe-labelled cysteine peptide fold change (50 µM)
SEC61A1_P61619_13_FLEVIKPFCVILPEIQKPER (UniProt P61619),0.0694,-0.0241
SEH1L_Q96EE3_77_VTWAHPEFGQVLASCSFDR (UniProt Q96EE3),-0.14,0.133
SDF2L1_Q9HCN8_38_TGAELVTCGSVLK (UniProt Q9HCN8),-0.141,0.0695
SDSL_Q96GA7_38_CENVQPSGSFK (UniProt Q96GA7),0.0156,-0.0604
SEC13_P55735_245_VFIWTCDDASSNTWSPK (UniProt P55735),0.0115,0.0722
SBNO1_A3KN83_1277_VVSDDALMHWLDQYNSSADTCTHAYWR (UniProt A3KN83),0.0541,-0.0901
SAMM50_Q9Y512_65_DDIIICEIGDVFK (UniProt Q9Y512),0.144,0.425
SCML2_Q9UQR0_51_ETGSISAPSECFR (UniProt Q9UQR0),-0.0591,-0.197
SEC24D_O94855_1021_GLYGGSSYVDFLCCVHK (UniProt O94855),-0.0787,-0.572
SEPT11_Q9NVA2_41_STSQGFCFNILCVGETGIGK (UniProt Q9NVA2),0.0312,0.112
SDF2L1_Q9HCN8_149_CSGQHWER (UniProt Q9HCN8),-0.0611,0.0671
SEC23IP_Q9Y6Y8_678_IDMESLLMCTVDDLK (UniProt Q9Y6Y8),0.132,0.114
SEPSECS_Q9HD40_431_GFMSHTNNYPCAYLNAASAIGMK (UniProt Q9HD40),0.0208,-0.0369
SEPT11_Q9NVA2_150_IHACLYFIAPTGHSLK (UniProt Q9NVA2),-0.125,0.227
SEC24D_O94855_390_YQCGFCNCVNDVPPFYFQHLDHIGR (UniProt O94855),0.533,0.699
SEPT11_Q9NVA2_41+46_STSQGFCFNILCVGETGIGK (UniProt Q9NVA2),0.151,-0.125
SCMH1_Q96GD3_225_DIFPVGWCSLTGDNLQPPGTK (UniProt Q96GD3),-0.098,0.419
SEC23B_Q15437_346_TAANGHCIDIYACALDQTGLLEMK (UniProt Q15437),-0.139,-0.168
SEC24D_O94855_431_RLDHYEKPELSLGSYEYVATLDYCR (UniProt O94855),-0.00433,-0.0677
